Values from PubChem BioAssay AID1259308 (NCATS, 2017)

Aim: 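Candidate targets for better recombinant protein yield in mammalian cells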 (primary screen)
System: human HEK293 embryonic kidney cells stably expressing firefly luciferase (HEK-CMV-Luc2-Hygro)
Knock-down reagent: single siRNA against human genes, 0.8 pmol siRNA per well
Time to read-out: 72 h
Measurement: 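Luciferase light (ONE-Glo) measured on one replicate plate set and viability (CellTiter-Glo) on the other, scaled to a negative control siRNA, with robust z-scores and luciferase per cell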
Scale: total luciferase, z-score and total luciferase, % of control: higher = more reporter protein produced; luciferase per cell, z-score: higher = more reporter output per viable cell; viable cells, % of control: higher = more viable cells
Rule for the call: 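Active when the median/MAD z-score for overall luciferase is greater than 3; a gene was taken forward for validation with new siRNAs if at least two of its three siRNAs passed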
Calls: active = raised luciferase; inactive = no rise
In all, the deposit lists about 59,000 reagents; this is an unselected part. Of all reagents, about 1,510 (2.6%) got an active call. 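Calls use total luciferase alone and ignore viability, so some active siRNAs may act by altering cell number.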 The numbers tell different reagents against one gene apart. Reagent sequences are not shown.

Gene,reagent no.,"total luciferase, z-score","total luciferase, % of control","luciferase per cell, z-score","viable cells, % of control",outcome
RPL39L (ribosomal protein L39 like),1,-1.39,54.3,-1.68,94.5,inactive
RPL39L (ribosomal protein L39 like),2,-0.547,71,-0.571,92.2,inactive
RPL39L (ribosomal protein L39 like),3,1.25,107,1.02,91.2,inactive
MCM4 (minichromosome maintenance complex component 4),1,0.664,95.1,0.483,93.6,inactive
MCM4 (minichromosome maintenance complex component 4),2,-0.312,75.7,-0.635,99.9,inactive
MCM4 (minichromosome maintenance complex component 4),3,-1.14,59.1,-1,86.1,inactive
ARHGEF39 (Rho guanine nucleotide exchange factor 39),1,-0.41,73.7,-0.595,96.4,inactive
ARHGEF39 (Rho guanine nucleotide exchange factor 39),2,-0.00463,81.8,0.106,88.9,inactive
ARHGEF39 (Rho guanine nucleotide exchange factor 39),3,-1.62,49.7,-1.8,89.1,inactive
TNFSF11 (TNF superfamily member 11),1,-0.166,78.6,-0.192,92.4,inactive
TNFSF11 (TNF superfamily member 11),2,-1.3,56.1,-1.38,90.3,inactive
TNFSF11 (TNF superfamily member 11),3,0.749,96.8,0.801,87.6,inactive
H3C3 (H3 clustered histone 3),1,1.2,106,1.45,80.7,inactive
H3C3 (H3 clustered histone 3),2,0.0219,82.3,0.323,84.5,inactive
H3C3 (H3 clustered histone 3),3,0.109,84.1,-0.185,98.6,inactive
IFT80 (intraflagellar transport 80),1,1.21,106,1.14,87.8,inactive
IFT80 (intraflagellar transport 80),2,0.512,92.1,-0.106,106,inactive
IFT80 (intraflagellar transport 80),3,-0.891,64.2,-0.571,83.4,inactive
DDB1 (damage specific DNA binding protein 1),1,-0.0441,81,-0.105,93.1,inactive
DDB1 (damage specific DNA binding protein 1),2,-0.593,70.1,-0.778,96.1,inactive
DDB1 (damage specific DNA binding protein 1),3,0.635,94.5,0.0171,105,inactive
MME (membrane metalloendopeptidase),1,0.841,98.6,0.179,105,inactive
MME (membrane metalloendopeptidase),2,-1.8,46.1,-0.264,55.2,inactive
MME (membrane metalloendopeptidase),3,3.31,148,3.18,71.5,active
ANKDD1B (ankyrin repeat and death domain containing 1B),1,-0.697,68,-1.15,103,inactive
ANKDD1B (ankyrin repeat and death domain containing 1B),2,2.14,124,1.4,96,inactive
ANKDD1B (ankyrin repeat and death domain containing 1B),3,0.396,89.8,-0.0206,101,inactive
HOXA1 (homeobox A1),1,-0.253,76.9,1.59,56.5,inactive
HOXA1 (homeobox A1),2,-0.103,79.8,-0.178,93.5,inactive
HOXA1 (homeobox A1),3,-0.0751,80.4,0.0104,89.6,inactive
TMTC4 (transmembrane O-mannosyltransferase targeting cadherins 4),1,-0.98,62.4,-0.92,88.8,inactive
TMTC4 (transmembrane O-mannosyltransferase targeting cadherins 4),2,0.98,101,1.13,84.2,inactive
TMTC4 (transmembrane O-mannosyltransferase targeting cadherins 4),3,-1.04,61.2,-0.265,73.4,inactive
EXT1 (exostosin glycosyltransferase 1),1,0.602,93.9,0.0964,102,inactive
EXT1 (exostosin glycosyltransferase 1),2,0.141,84.7,-0.365,104,inactive
EXT1 (exostosin glycosyltransferase 1),3,-0.595,70.1,-1.06,104,inactive
CYP2E1 (cytochrome P450 family 2 subfamily E member 1),1,-0.312,75.7,-0.694,102,inactive
CYP2E1 (cytochrome P450 family 2 subfamily E member 1),2,-0.585,70.3,-0.384,86.9,inactive
CYP2E1 (cytochrome P450 family 2 subfamily E member 1),3,-1.49,52.3,-1.59,88.9,inactive
LINC01242 (long independently transcribed non-coding RNA 1242),1,0.397,89.8,0.803,81.2,inactive
LINC01242 (long independently transcribed non-coding RNA 1242),2,0.319,88.2,0.357,89.7,inactive
LINC01242 (long independently transcribed non-coding RNA 1242),3,-1.9,44,-0.18,51.6,inactive
DIRAS1 (DIRAS family GTPase 1),1,-1.18,58.3,-1.15,88.1,inactive
DIRAS1 (DIRAS family GTPase 1),2,-0.265,76.6,-0.455,96.5,inactive
DIRAS1 (DIRAS family GTPase 1),3,0.000882,81.9,-0.205,96.6,inactive
DRGX (dorsal root ganglia homeobox),1,-1.14,59.3,-0.696,79.6,inactive
DRGX (dorsal root ganglia homeobox),2,-0.168,78.6,0.727,72.5,inactive
DRGX (dorsal root ganglia homeobox),3,-0.585,70.3,1.23,56.7,inactive
TLR1 (toll like receptor 1),1,0.49,91.6,-0.602,120,inactive
TLR1 (toll like receptor 1),2,-0.431,73.3,-1.03,107,inactive
TLR1 (toll like receptor 1),3,0.47,91.2,0.857,81.4,inactive
ZNF606 (zinc finger protein 606),1,-0.736,67.2,0.102,73.2,inactive
ZNF606 (zinc finger protein 606),2,1.28,107,0.749,98.5,inactive
ZNF606 (zinc finger protein 606),3,0.0551,83,-0.465,105,inactive
ATP5PO (ATP synthase peripheral stalk subunit OSCP),1,-0.43,73.3,-0.731,99.4,inactive
ATP5PO (ATP synthase peripheral stalk subunit OSCP),2,0.469,91.2,0.759,83.5,inactive
ATP5PO (ATP synthase peripheral stalk subunit OSCP),3,-0.378,74.4,-0.333,90.7,inactive

Records listed above marked active, once more:
Gene,reagent no.,"total luciferase, z-score","total luciferase, % of control","luciferase per cell, z-score","viable cells, % of control",outcome
MME (membrane metalloendopeptidase),3,3.31,148,3.18,71.5,active
